Construct, isoform or probe ends are uncertain for at least one entry. For some of these results: At least one verdict rests on a figure or table, not on a statement of the authors. Protein sequences can lack the tags named with them.
What was measured:
[1] = target: T1, RAG1 central domain (CD) (UniProt P15919); test: EMSA; conditions: no inhibitor, 5 mM Mg2+; EMSA and BLI: 10 mM Tris-HCl pH 8.0, 5 mM MgCl2, 2 mM DTT, 6% glycerol, 100 mM NaCl; EMSA at room temperature, 30 min (CD) or 20 min (NBD), 5% native PAGE 1X TBE; recombinant protein; protein details: MBP; label: 5' 32P on one strand
T1 sequence (looked up, limits assumed): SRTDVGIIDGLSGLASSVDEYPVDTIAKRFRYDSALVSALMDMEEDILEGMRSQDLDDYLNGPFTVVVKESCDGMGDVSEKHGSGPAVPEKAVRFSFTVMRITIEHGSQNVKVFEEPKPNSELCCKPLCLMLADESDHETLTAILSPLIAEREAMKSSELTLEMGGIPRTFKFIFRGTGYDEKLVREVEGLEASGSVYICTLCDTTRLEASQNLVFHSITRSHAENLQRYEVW

[2] = target: T2, RAG1 nonamer binding domain (NBD) (UniProt P15919); test: EMSA; conditions: no inhibitor, 5 mM Mg2+; EMSA and BLI: 10 mM Tris-HCl pH 8.0, 5 mM MgCl2, 2 mM DTT, 6% glycerol, 100 mM NaCl; EMSA at room temperature, 30 min (CD) or 20 min (NBD), 5% native PAGE 1X TBE; recombinant protein; protein details: 6xHis; label: 5' 32P on one strand
T2 sequence (looked up, limits assumed): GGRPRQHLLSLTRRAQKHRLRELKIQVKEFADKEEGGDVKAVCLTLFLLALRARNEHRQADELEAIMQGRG

[3] = target: T1, RAG1 central domain (CD); test: BLI; conditions: no inhibitor, 5 mM Mg2+; recombinant protein; protein details: MBP
[4] = target: T2, RAG1 nonamer binding domain (NBD); test: BLI; conditions: no inhibitor, 5 mM Mg2+; recombinant protein; protein details: 6xHis

Sequence | binding result [1] | binding result [2] | Kd [3] | Kd [4]
GATCAGCTGATAGCTACCACAGTGCTACAGACTGGAACAAAAACCCTGCT / TAGCAGGGTTTTTGTTCCAGTCTGTAGCACTGTGGTAGCTATCAGCTGAT [12RSS (AKN1/AKN2)] | binds | binds | – | –
GATCAGCTGATAGCTACCACAGTGCTACAGACTGGAACAAAAACCCTGCT / TAGCAGGGTTTTTGTTCCAGTCTGTAGCACTGTGGTAGCTATCAGCTGAT [biotinylated 12RSS (AKN1)] | – | – | 1.5 nM | 4.6 nM
